Laboratory results from article PMC9927466.
No constants are given. Whether binding was seen depends on the method and setting. Binding seen in cells or lysates may run through a third protein. Here binding means that the protein was enriched with, or labelled near, the bait; the list need not be complete. Where a sequence is shown, tags or fusion partners need not be part of it.

Chains of the proteins cited; added tags and fusions are not shown.
UniProt P51149: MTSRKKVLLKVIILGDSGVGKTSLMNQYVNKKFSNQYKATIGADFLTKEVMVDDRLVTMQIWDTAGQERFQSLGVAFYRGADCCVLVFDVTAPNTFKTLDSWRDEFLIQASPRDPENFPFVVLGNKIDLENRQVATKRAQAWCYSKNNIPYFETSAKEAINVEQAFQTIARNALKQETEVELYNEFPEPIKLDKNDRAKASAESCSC
UniProt Q9NP72: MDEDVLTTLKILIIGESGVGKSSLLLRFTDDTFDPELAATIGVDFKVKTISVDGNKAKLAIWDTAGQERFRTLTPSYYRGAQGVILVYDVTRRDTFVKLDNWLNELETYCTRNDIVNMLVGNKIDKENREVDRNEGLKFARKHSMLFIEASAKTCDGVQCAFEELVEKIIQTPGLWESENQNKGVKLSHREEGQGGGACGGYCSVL
UniProt Q9UL25: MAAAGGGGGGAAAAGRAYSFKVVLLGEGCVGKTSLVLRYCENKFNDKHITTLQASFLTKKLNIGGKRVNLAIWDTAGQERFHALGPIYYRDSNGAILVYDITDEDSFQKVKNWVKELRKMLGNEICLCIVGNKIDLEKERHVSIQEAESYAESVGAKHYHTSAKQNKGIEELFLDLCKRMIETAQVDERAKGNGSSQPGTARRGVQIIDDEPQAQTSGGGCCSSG

T1: Flag-BALF2 expressed in Rta-reactivated TW01-EBV cells (Epstein-Barr virus (B95-8 strain)) (UniProt P03227)
T1 sequence: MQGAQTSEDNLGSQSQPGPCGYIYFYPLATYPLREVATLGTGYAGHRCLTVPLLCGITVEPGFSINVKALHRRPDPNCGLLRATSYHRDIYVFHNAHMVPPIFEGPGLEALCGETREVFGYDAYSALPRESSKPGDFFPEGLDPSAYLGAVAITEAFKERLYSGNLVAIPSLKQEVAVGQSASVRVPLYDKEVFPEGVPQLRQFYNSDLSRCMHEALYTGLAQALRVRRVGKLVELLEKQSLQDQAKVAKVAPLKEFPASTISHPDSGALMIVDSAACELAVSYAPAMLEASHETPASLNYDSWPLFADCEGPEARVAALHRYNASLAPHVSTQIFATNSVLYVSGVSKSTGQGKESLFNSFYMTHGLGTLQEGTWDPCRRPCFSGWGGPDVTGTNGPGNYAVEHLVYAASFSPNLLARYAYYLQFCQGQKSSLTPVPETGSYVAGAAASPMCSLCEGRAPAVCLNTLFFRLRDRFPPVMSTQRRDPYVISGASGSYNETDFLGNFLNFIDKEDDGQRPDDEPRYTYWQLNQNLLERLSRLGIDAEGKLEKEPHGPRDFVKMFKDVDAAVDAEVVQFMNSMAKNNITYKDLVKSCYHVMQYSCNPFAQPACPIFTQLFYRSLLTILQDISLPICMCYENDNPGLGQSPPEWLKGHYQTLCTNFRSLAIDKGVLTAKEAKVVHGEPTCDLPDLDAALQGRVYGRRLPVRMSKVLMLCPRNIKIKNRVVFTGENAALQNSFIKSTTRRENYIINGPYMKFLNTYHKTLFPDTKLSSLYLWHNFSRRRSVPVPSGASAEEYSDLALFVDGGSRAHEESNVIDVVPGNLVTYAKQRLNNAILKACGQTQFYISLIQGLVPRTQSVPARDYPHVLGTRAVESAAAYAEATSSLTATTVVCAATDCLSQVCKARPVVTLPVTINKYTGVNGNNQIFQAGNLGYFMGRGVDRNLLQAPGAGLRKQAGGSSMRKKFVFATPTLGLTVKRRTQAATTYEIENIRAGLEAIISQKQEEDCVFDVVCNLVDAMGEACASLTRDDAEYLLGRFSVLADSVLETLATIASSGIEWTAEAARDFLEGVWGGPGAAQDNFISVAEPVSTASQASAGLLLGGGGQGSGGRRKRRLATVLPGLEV

B1: Rab13, endogenous in TW01-EBV cells (protein, UniProt P51153 1-203)
chain: MAKAYDHLFKLLLIGDSGVGKTCLIIRFAEDNFNNTYISTIGIDFKIRTVDIEGKKIKLQVWDTAGQERFKTITTAYYRGAMGIILVYDITDEKSFENIQNWMKSIKENASAGVERLLLGNKCDMEAKRKVQKEQADKLAREHGIRFFETSAKSSMNVDEAFSSLARDILLKSGGRRSGNGNKPPSTDLKTCDKKNTNKCSLG

Each molecule was assayed against T1, Flag-BALF2 expressed in Rta-reactivated TW01-EBV cells (Epstein-Barr virus (B95-8 strain)) (assay: affinity purification with mass spectrometry).
With B1 the binding was “binds”.

Biological target: T1, Flag-BALF2 expressed in Rta-reactivated TW01-EBV cells (Epstein-Barr virus (B95-8 strain))
Experiment: affinity purification with mass spectrometry
Remark: another data set of the same source
For “BBLF2/BBLF3 (viral primase-associated factor)”, the binding was “binds”. With BXRF1 the binding was “binds”. For LF3, the binding was “binds”. With “Rab7A, endogenous in TW01-EBV cells (from UniProt P51149 1-207)” the binding was “binds”. “Rab18, endogenous in TW01-EBV cells (from UniProt Q9NP72 1-206)” was tested, and the binding was “binds”. With “Rab21, endogenous in TW01-EBV cells (from UniProt Q9UL25 1-225)” the binding was “binds”.
